These results are taken from article PMC9308409 (Communications Biology, 2022).

Amino acid sequences for entries named in this document (tags omitted).
UniProt Q8NHX9, whole entry L11A/L12A: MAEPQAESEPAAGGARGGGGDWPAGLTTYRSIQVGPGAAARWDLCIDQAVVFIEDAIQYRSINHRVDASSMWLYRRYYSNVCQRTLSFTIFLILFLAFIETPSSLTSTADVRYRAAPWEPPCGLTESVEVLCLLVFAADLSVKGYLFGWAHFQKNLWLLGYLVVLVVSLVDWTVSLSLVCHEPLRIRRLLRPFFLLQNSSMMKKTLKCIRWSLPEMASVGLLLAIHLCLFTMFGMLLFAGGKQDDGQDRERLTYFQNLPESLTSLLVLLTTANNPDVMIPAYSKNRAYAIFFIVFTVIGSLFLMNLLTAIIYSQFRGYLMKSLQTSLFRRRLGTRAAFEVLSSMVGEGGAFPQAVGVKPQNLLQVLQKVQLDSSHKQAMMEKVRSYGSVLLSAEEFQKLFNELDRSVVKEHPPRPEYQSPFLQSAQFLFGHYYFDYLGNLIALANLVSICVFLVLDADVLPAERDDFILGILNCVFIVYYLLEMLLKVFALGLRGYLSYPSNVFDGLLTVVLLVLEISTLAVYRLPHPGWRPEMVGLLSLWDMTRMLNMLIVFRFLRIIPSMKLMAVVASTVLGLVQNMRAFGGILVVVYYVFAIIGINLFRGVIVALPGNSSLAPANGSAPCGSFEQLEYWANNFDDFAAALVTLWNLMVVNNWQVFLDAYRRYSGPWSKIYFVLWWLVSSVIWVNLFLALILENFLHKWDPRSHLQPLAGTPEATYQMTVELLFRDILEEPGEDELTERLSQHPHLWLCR

For the experiment, the target named is T1, human TPC2 L11A/L12A (TPC2^PM) (Homo sapiens, UniProt Q8NHX9, L11A/L12A).
T1 construct: FLAG (C); V5 (C); expressed in transfected cells; host or cells: HEK293
In words: Whole cell patch-clamp of NAADP (microinjection)-induced TPC2^PM currents in HEK293 cells. The format is cell-based. The protocol:
Whole cell patch-clamp recording of the NAADP (microinjection)-induced TPC2^PM currents was performed as we reported. […] The cells were visualized under an infrared differential interference contrast optics microscope (Zeiss). Currents were recorded by voltage ramps from −120 to +120 mV over 400 ms for every 2 s with a holding potential of 0 mV. After a whole cell recording configuration was achieved, an injection pipette was inserted into the cell and the baseline of the whole cell current was recorded. Microinjection of NAADP was performed as above in imaging analysis of NAADP-evoked Ca^2+ release. The NAADP-induced currents were obtained by subtraction of the baseline from NAADP injection-induced currents.

“And” between values parts separate entries of the source, which are not always exact repeats. Identical values can stand only once.

For the molecule `Nc1ccc(C(=O)Nc2cccc(-c3nc(N4CCOCC4)c4oc5ncccc5c4n3)c2)cn1` [YM201636], the “I, current density of NAADP-induced whole cell TPC2^PM currents, individual cells” value is 12.3231 pA/pF and 7.512 pA/pF and 11.1767 pA/pF and 10.1987 pA/pF and 6.932 pA/pF and 10.539 pA/pF.
